Experimental data reported in patent US12525646B2, “Ionic cyclic nitroxyl radical oligomers” (Wisconsin Alumni Research Foundation, priority 2021, dated 2026).

Experiment: Redox flow battery cycling and power performance

CC1(C)CC([N+](C)(C)C2CC(C)(C)N([O])C(C)(C)C2)CC(C)(C)N1[O] [i-TEMPOD-1]
capacity decay (2 M (4 M electron concentration), AMVN membrane, after over 100 days of cycling): no capacity decay | capacity retention in RFB cycling (DSVN membrane, high concentration, after 24 days of continuous cycling): remarkable capacity retention | high-frequency resistance as share of the DC resistance (high concentration flow battery, 50% state-of-charge): 97%
